Laboratory results reported in patent US10813894B2, “Methods of inhibiting pain” (The Regents of the University of California, priority 2015, dated 2020).
Entries after “also recorded” stand apart in the source; their conditions may differ. For at least one compound, name, drawing or mass did not settle the structure.

How the values were obtained:
[1] = system: healthy rats; test: Intraplantar dimethylcelecoxib (DMCx) induced pain model; type: in vivo, rat
Procedure: FIGS. 9A-C illustrate that mechanistically different ER stress inducer dimethylcelecoxib (DMCx) generates a rapid and intense but sEHI and cox-2 inhibitor reversible pain phenotype. (A) DMCx is administered into the midsection of one hind paw in a volume of 10 μL (20 μg). Mechanical withdrawal of ipsi- and contralateral paws are then monitored over a period of 4 h. The withdrawal data are presented as gram force required for inducing a withdrawal reflex response. (B) Intraplantar DMCx induced pain is reversible with sEH inhibitor (1 h prior to Tm, i.p. administration) in a dose dependent manner.

[2] = system: healthy rats; test: Intraplantar tunicamycin (Tm) induced pain model, mechanical withdrawal; type: in vivo, rat; details: pre-administration i.p. 1 h prior to Tm; celecoxib 30 mg/kg
Procedure: FIGS. 7A-F illustrate that ER stress inducer tunicamycin (Tm) is rapid, intense and selective in generating pain behavior. (A) Tm is administered into the midsection of one hind paw in a volume of 10 μL (20 μg). Mechanical withdrawal of ipsi- and contralateral paws are then monitored over a period of 6 h until the ipsilateral paw measurements returned to baseline values. The withdrawal data are presented as gram force required for inducing a withdrawal reflex response. (B) Decreasing doses of Tm generated less intense allodynia which subsided faster than the highest dose. […] (D) Intraplantar Tm induced pain is reversible with sEH inhibitor (lh prior to Tm, i.p. administration) in a dose dependent manner. (E) Expectedly this pain is reversible with chemical chaperone 4-PBA. The basis for the increase above the baseline threshold in this group is not investigated.

[3] = system: ER stress markers; test: ER stress markers in paw skin and sciatic nerve of diabetic rats (Western blotting, RT-PCR); type: in vivo, rat
[4] = system: type I diabetic rats; test: STZ induced type I diabetic rat neuropathic pain model, electronic von Frey test; details: i.p., 4-PBA 10-100 mg/kg, TPPU 0.01-1 mg/kg
[5] = diabetic rats, 30 min post administration, 1 mg/kg i.p.

Cc1ccc(C)c(-c2cc(C(F)(F)F)nn2-c2ccc(S(N)(=O)=O)cc2)c1 [DMCx, dimethyl-celecoxib]
Induction of pain by intraplantar administration ([1]; hind paw of healthy rats): induce a significant degree of pain; also recorded: as potent as Tm
Heat sensation after DMCx ([1]; intraplantar DMCx): does not lead to loss of heat sensation

Cc1ccc(-c2cc(C(F)(F)F)nn2-c2ccc(S(N)(=O)=O)cc2)cc1 [celecoxib]
Reversal of Tm induced sensitivity to mechanical stimuli [2]: resistant; also recorded: marginal efficacy
Reversal of DMCx induced pain ([1]; pre-administration i.p. 1 h prior, celecoxib 30 mg/kg): partially effective; also recorded: partially blocked

CCC(=O)N1CCC(NC(=O)Nc2ccc(OC(F)(F)F)cc2)CC1 [TPPU, 1-trifluoromethoxyphenyl-3-(1-propionylpiperidin-4-yl) urea]
mRNA levels of BiP, sXBP1 and ATF4 ([3]; diabetic rats): drastic decreases
ER stress and downstream responses in the sciatic nerve [3, 5]: largely normalized
ER stress and downstream responses in the skin [3, 5]: significantly reduced
pp38 and pJNK ([3]; diabetic rats, as early as 30 min): similarly normalized
Phosphorylation of PERK (Thr980), eIF2α (Ser51) and Ire1α (Ser727) and induction of BiP ([3]; sciatic nerve of diabetic rats): effectively extinguished
sXBP1 and cleaved ATF6 expression ([3]; sciatic nerve of diabetic rats): significant decreases
Allodynia / antinociception (von Frey withdrawal threshold) [4]: higher efficacy than earlier sEH inhibitors; also recorded: reduce allodynia in a dose and time dependent manner
